The assay has as its target Flag-YOD1 (overexpressed in 786-O cells) (human) (UniProt Q5VVQ6). Kind of assay: affinity purification with mass spectrometry; Flag-YOD1 overexpressed in 786-O cells; lysate in IP lysis buffer on Flag-labelled magnetic beads overnight at 4 °C, washed with PBST, SDS-PAGE, bands excised, LC-MS/MS.

Sequences of proteins named here, by UniProt entry; tags and fusion partners are left off.
UniProt Q5VVQ6: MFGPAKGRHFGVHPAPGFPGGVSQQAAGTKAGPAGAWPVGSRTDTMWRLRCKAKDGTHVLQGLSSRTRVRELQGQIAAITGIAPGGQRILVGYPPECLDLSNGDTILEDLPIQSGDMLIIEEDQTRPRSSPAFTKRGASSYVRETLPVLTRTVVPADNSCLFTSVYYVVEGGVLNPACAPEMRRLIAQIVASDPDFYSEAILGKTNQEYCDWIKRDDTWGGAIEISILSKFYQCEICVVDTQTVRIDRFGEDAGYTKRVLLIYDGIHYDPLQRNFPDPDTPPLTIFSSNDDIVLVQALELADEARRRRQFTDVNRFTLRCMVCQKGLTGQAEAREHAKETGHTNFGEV
UniProt P17028: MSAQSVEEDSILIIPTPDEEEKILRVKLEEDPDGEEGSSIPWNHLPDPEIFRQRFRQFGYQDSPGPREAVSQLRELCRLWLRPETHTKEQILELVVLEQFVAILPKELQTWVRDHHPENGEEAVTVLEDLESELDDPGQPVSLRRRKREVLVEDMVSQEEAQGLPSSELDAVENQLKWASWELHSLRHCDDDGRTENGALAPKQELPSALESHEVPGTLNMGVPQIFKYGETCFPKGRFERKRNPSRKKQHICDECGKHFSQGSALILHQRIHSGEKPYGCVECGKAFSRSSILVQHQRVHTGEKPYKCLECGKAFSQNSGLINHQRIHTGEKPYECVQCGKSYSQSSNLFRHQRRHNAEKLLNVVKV

Among the data in PMC12022293 are binding values, retold here.

No constants are given. Whether binding was seen depends on the method and setting. In cells and extracts the contact can be indirect. These calls come from enrichment with a bait or labelling near it, and not all partners need be listed.

Consider “ZNF24, endogenous in 786-O cells (from UniProt P17028 1-368)”, for which the binding entry is recorded as “binds”.
